Source: PubChem BioAssay AID1347076 (National Center for Advancing Translational Sciences (NCATS), 2019)
About 13,000 (3.2%) of roughly 400,000 compounds were called active. This list was built around the results that the source calls inconclusive (neither active nor inactive); the mix of calls is not that of the screen. The call rests on the fitted dose curve; in most records, active means well fitted cell-killing curve with a large enough effect; inconclusive means small, poorly fitted or top-dose-only effect, or effect the other way; inactive means flat fitted curve, though single readings scatter. Potencies beside an inconclusive call are fits to weak or partial responses and may not hold up.

Experiment: qHTS assay for MDR1-selective chemotherapeutics: Primary screen using the drug-selected MDR subline cells KB-V1; further: nearly all actives have a fitted effect of over 60% in size
Conditions: KB-V1 MDR cells viability, CellTiter-Glo, 72 h; activity change, negative = cytotoxicity: at 46.1 µM (top of the series)
Summary of the method: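 Cells of the MDR subline KB-V1 are plated, dosed with compound at multiple concentrations, and incubated 72 h at 37 degrees C; CellTiter-Glo is then added and luminescence read after 10 min.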
On the % scale 0 is the no-effect control and ±100 the full control effect; potency means the concentration at half of the fitted maximal effect.

SMILES	Potency	activity change, negative = cytotoxicity
CCOc1ccc(S(=O)(=O)N2Cc3ccccc3CC2C(=O)Nc2ccc(NC(C)=O)cc2)cc1 (stereo not given)	inactive	
COc1cc2c(c(OC)c1OC)-c1c(cc3c(c1OC)OCO3)[C@@H](OC(C)=O)[C@H](C)[C@H](C)C2	inactive	
Cc1ccn2c(NC3CCCCC3)c(C)nc2c1	inconclusive: 20.6 µM [cytotoxic, single point]	
COc1ccccc1Cn1c(C)nc2ccccc21	inconclusive: 29.1 µM [cytotoxic, single point]	
CN(C)c1ccc(/C=N/NC(N)=S)cc1[N+](=O)[O-]	active: 6.51 µM	
CCCCNC(=O)C1CCN(S(=O)(=O)N2CCCCCC2)CC1	inconclusive: 9.2 µM [cytotoxic, partial curve]	
Cc1ccc([C@H]2N[C@]3(CCCN(Cc4cccn4C)C3=O)[C@H]3C(=O)N(C)C(=O)[C@@H]23)cc1	inconclusive: 7.31 µM [rising, partial curve, poor fit]	
c1coc(-c2nc(-c3ccco3)c(-c3ccco3)nc2-c2ccco2)c1	inconclusive: 29.1 µM [rising, single point]	
CCOc1ccc(/C(O)=C2/C(=O)C(=O)N(CCN(C)C)C2c2ccccc2)cc1Cl (stereo not given)	inconclusive: 29.1 µM [rising, single point]	
COc1ccccc1S(=O)(=O)Cc1ccc(C(=O)NC2CCCCC2)o1	active: 14.6 µM	
CCCS(=O)(=O)N1CC(=O)N(c2cccc(F)c2)C(C)(C(=O)NC2CCCCCC2)C1 (stereo not given)	inactive	
O=C1CC(c2ccccc2)Oc2cc(O)cc(O)c21 (stereo not given)	inactive	
COc1ccc(C(=O)Nc2ccc(S(=O)(=O)Nc3cc(C)nc(C)n3)cc2)cc1	inconclusive: 23.1 µM [rising, partial curve, poor fit]	
Cc1ccc(NC(=O)CN(C)S(=O)(=O)c2ccc(Cl)s2)c(O)c1		inconclusive: -12.3%
COc1ccc2c(c1)Cc1sc(NC(=O)c3cccnc3)nc1-2	inconclusive: 29.1 µM [cytotoxic, single point]	
NC(=O)C(NN=C(c1ccccc1)c1ccccc1)c1ccccc1 (stereo not given)	inactive	
N=c1c(C(=O)NC2CCCCC2)cc2c(=O)n3ccccc3nc2n1Cc1ccco1	inactive	
CCn1nnnc1SCC(=O)N(C)C1CCS(=O)(=O)C1 (stereo not given)	inconclusive: 32.6 µM [rising, single point]	
Cc1cccc(C)c1OCC(=O)Nc1ccccc1N1CCCCC1	inconclusive: 20.6 µM [cytotoxic, single point]	
Cc1cc(C(=O)NNC(=S)Nc2ccccc2C)cs1	inconclusive: 20.6 µM [cytotoxic, partial curve]	
O=C(c1ccc2c(c1)OCCO2)C1CCN(C(=O)Nc2ccc(F)cc2)CC1	active: 23.1 µM	
O=C(Cc1csc(Nc2nc(=S)[nH]c3ccccc23)n1)NCCCN1CCN(c2cccc(Cl)c2)CC1	inconclusive: 25.9 µM [cytotoxic, single point]	
COc1ccc(CN2CCc3c(c(=O)n4ncc(C(=O)N5CCN(c6ccccc6F)CC5)c4n3C)C2)cc1	inactive	

9 compounds already listed, ordered by molecular weight, low to high:
SMILES	Potency	activity change, negative = cytotoxicity
CN(C)c1ccc(/C=N/NC(N)=S)cc1[N+](=O)[O-]	active: 6.51 µM	
Cc1cc(C(=O)NNC(=S)Nc2ccccc2C)cs1	inconclusive: 20.6 µM [cytotoxic, partial curve]	
CCn1nnnc1SCC(=O)N(C)C1CCS(=O)(=O)C1 (stereo not given)	inconclusive: 32.6 µM [rising, single point]	
Cc1cccc(C)c1OCC(=O)Nc1ccccc1N1CCCCC1	inconclusive: 20.6 µM [cytotoxic, single point]	
c1coc(-c2nc(-c3ccco3)c(-c3ccco3)nc2-c2ccco2)c1	inconclusive: 29.1 µM [rising, single point]	
COc1ccc(C(=O)Nc2ccc(S(=O)(=O)Nc3cc(C)nc(C)n3)cc2)cc1	inconclusive: 23.1 µM [rising, partial curve, poor fit]	
COc1cc2c(c(OC)c1OC)-c1c(cc3c(c1OC)OCO3)[C@@H](OC(C)=O)[C@H](C)[C@H](C)C2	inactive	
CCOc1ccc(S(=O)(=O)N2Cc3ccccc3CC2C(=O)Nc2ccc(NC(C)=O)cc2)cc1 (stereo not given)	inactive	
O=C(Cc1csc(Nc2nc(=S)[nH]c3ccccc23)n1)NCCCN1CCN(c2cccc(Cl)c2)CC1	inconclusive: 25.9 µM [cytotoxic, single point]	

(next part)

SMILES	Potency	activity change, negative = cytotoxicity
CC/C(O)=C1\C(=O)CCCC1=NCc1nc2ccccc2[nH]1	inactive	
COc1ccc(OC)c(S(=O)(=O)N2CCCCC2C(=O)N2CCN(c3ccccn3)CC2)c1 (stereo not given)	active: 9.2 µM	
CCOC(=O)C1C(=O)C=C(c2ccccc2)CC1c1ccccc1 (stereo not given)	inconclusive: 6.51 µM [cytotoxic, partial curve]	
Cc1ccc(S(=O)(=O)N2CCN(C(=O)c3c(-c4ccccc4)noc3C)CC2)cc1	inconclusive: 16.4 µM [cytotoxic, partial curve, poor fit]	
COc1cc(CNc2ccc3[nH]c(=O)[nH]c3c2)ccc1OCc1ccc(F)cc1Cl	inactive	
COc1cc(CNc2ncc(-c3ccc(Cl)cc3)n2C)cc(OC)c1OC	inconclusive: 6.51 µM [cytotoxic, partial curve]	
CCCCC1CCC(C(=O)N2CC(=O)Nc3ccc(C)cc3C2c2ccc(F)cc2)CC1 (stereo not given)	inconclusive: 16.4 µM [cytotoxic, partial curve]	
O=C(O)COCC(=O)N1CCc2c([nH]c3ccccc23)C1C(F)(F)F (stereo not given)	inconclusive: 4.61 µM [rising, full curve]	
Cc1cc(NS(=O)(=O)c2ccc(N)cc2)no1	inactive	
Cc1cccc(N2CCN(C(=O)c3nn(C)c4c3CS(=O)(=O)c3ccccc3-4)CC2)c1C	inconclusive: 32.6 µM [cytotoxic, single point]	
O=C(NCc1ccccc1Cl)c1ccc(CS(=O)(=O)c2ccc(Br)cc2)o1	inactive	
O=[N+]([O-])c1ccc(N2CCN(c3ccc(F)cc3)CC2)cn1	inconclusive: 16.4 µM [cytotoxic, partial curve]	
CCC(=O)c1ccc(OC(=O)C2CCN(C3=NS(=O)(=O)c4ccccc43)CC2)cc1	inconclusive: 23.1 µM [rising, partial curve, poor fit]	
CC(C)(CO)Nc1ccc([N+](=O)[O-])cc1[N+](=O)[O-]	inconclusive: 29.1 µM [cytotoxic, single point]	
CC(C)(C)c1ccc(C2CC2C(=O)N/N=C\c2ccc[nH]2)cc1 (stereo not given)	inconclusive: 29.1 µM [cytotoxic, single point]	
CCC(=O)N1CCC1(C)C(=O)Nc1ccc2nc(C)ccc2c1 (stereo not given)	inactive	
S=C(NCCc1ccccc1)Nc1ccccn1	active: 16.4 µM	
O=C(O)C(c1ccccc1)c1ccccc1	inactive	
CCc1ccccc1NC(=S)N(CCCN1CCN(C)CC1)Cc1cccs1	inconclusive: 8.2 µM [cytotoxic, partial curve]	
COC(=O)CSc1nnc(CNC(=O)c2cc(OC)c(OC)c(OC)c2)n1C	inconclusive: 25.9 µM [rising, single point]	
Cc1ccc(C(=O)NNc2nc3ccccc3nc2C(F)(F)F)cc1	inconclusive: 20.6 µM [cytotoxic, partial curve]	
COc1ccc(S(=O)(=O)Nc2ccc(S(=O)(=O)N3CCCC3)cc2)cc1	inconclusive: 29.1 µM [cytotoxic, single point]	
